Test [1] has as its target FHIP2A tagged at the carboxy terminus with BioID2 and 3xFLAG (human) (UniProt Q5W0V3). Put plainly: proximity labelling; BioID2 fused to the carboxy terminus of the bait in stable doxycycline-inducible 293T lines; 50 µM biotin 16 hr; RIPA lysis, streptavidin beads, on-bead digestion, MS; hits ≥threefold over cytoplasmic BioID2 control or absent from it, p < 0.05, three of four replicates.

Protein sequences, listed by entry. Tags and fused reporters are not part of them.
UniProt Q86V87: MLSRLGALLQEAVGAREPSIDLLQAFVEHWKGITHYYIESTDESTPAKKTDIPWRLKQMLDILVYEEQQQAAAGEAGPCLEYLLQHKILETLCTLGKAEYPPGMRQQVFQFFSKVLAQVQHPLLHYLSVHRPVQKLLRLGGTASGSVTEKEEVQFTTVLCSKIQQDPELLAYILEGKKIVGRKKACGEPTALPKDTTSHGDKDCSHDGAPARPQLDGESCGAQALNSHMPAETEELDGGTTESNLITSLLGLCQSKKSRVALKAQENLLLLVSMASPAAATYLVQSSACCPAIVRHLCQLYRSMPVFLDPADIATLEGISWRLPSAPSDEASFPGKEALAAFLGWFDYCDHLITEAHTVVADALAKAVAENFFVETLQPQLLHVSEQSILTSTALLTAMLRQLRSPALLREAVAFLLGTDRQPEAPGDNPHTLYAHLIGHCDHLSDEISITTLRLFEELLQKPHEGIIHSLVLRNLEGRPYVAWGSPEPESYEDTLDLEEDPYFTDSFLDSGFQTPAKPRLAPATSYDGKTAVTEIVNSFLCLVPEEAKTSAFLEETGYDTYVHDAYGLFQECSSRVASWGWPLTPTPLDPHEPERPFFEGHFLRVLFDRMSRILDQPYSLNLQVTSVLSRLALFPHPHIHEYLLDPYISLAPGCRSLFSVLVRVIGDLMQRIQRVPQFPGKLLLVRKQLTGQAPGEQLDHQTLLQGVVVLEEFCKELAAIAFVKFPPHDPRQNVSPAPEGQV

Test [2] addresses FHIP2B tagged at the carboxy terminus with BioID2 and 3xFLAG (human) (UniProt Q86V87). The test is described as above.

No constants are given. Whether binding was seen depends on the method and setting. Binding seen in cells or lysates may run through a third protein. Here binding means that the protein was enriched with, or labelled near, the bait; the list need not be complete. For some assays here: Where a sequence is shown, tags or fusion partners need not be part of it.

B1: SEC24B, endogenous in 293T cells (protein, UniProt O95487 1-1268)
chain: MSAPAGSSHPAASARIPPKFGGAAVSGAAAPAGPGAGPAPHQQNGPAQNQMQVPSGYGLHHQNYIAPSGHYSQGPGKMTSLPLDTQCGDYYSALYTVPTQNVTPNTVNQQPGAQQLYSRGPPAPHIVGSTLGSFQGAASSASHLHTSASQPYSSFVNHYNSPAMYSASSSVASQGFPSTCGHYAMSTVSNAAYPSVSYPSLPAGDTYGQMFTSQNAPTVRPVKDNSFSGQNTAISHPSPLPPLPSQQHHQQQSLSGYSTLTWSSPGLPSTQDNLIRNHTGSLAVANNNPTITVADSLSCPVMQNVQPPKSSPVVSTVLSGSSGSSSTRTPPTANHPVEPVTSVTQPSELLQQKGVQYGEYVNNQASSAPTPLSSTSDDEEEEEEDEEAGVDSSSTTSSASPMPNSYDALEGGSYPDMLSSSASSPAPDPAPEPDPASAPAPASAPAPVVPQPSKMAKPFGYGYPTLQPGYQNATAPLISGVQPSNPVYSGFQQYPQQYPGVNQLSSSIGGLSLQSSPQPESLRPVNLTQERNILPMTPVWAPVPNLNADLKKLNCSPDSFRCTLTNIPQTQALLNKAKLPLGLLLHPFRDLTQLPVITSNTIVRCRSCRTYINPFVSFIDQRRWKCNLCYRVNDVPEEFMYNPLTRSYGEPHKRPEVQNSTVEFIASSDYMLRPPQPAVYLFVLDVSHNAVEAGYLTILCQSLLENLDKLPGDSRTRIGFMTFDSTIHFYNLQEGLSQPQMLIVSDIDDVFLPTPDSLLVNLYESKELIKDLLNALPNMFTNTRETHSALGPALQAAFKLMSPTGGRVSVFQTQLPSLGAGLLQSREDPNQRSSTKVVQHLGPATDFYKKLALDCSGQQTAVDLFLLSSQYSDLASLACMSKYSAGCIYYYPSFHYTHNPSQAEKLQKDLKRYLTRKIGFEAVMRIRCTKGLSMHTFHGNFFVRSTDLLSLANINPDAGFAVQLSIEESLTDTSLVCFQTALLYTSSKGERRIRVHTLCLPVVSSLADVYAGVDVQAAICLLANMAVDRSVSSSLSDARDALVNAVVDSLSAYGSTVSNLQHSALMAPSSLKLFPLYVLALLKQKAFRTGTSTRLDDRVYAMCQIKSQPLVHLMKMIHPNLYRIDRLTDEGAVHVNDRIVPQPPLQKLSAEKLTREGAFLMDCGSVFYIWVGKGCDNNFIEDVLGYTNFASIPQKMTHLPELDTLSSERARSFITWLRDSRPLSPILHIVKDESPAKAEFFQHLIEDRTEAAFSYYEFLLHVQQQICK
Regarding B1, the binding result in test [1] is recorded as “binds”.

B2: Hook2, endogenous in 293T cells (protein, UniProt Q96ED9 1-719)
chain: MSVDKAELCGSLLTWLQTFHVPSPCASPQDLSSGLAVAYVLNQIDPSWFNEAWLQGISEDPGPNWKLKVSNLKMVLRSLVEYSQDVLAHPVSEEHLPDVSLIGEFSDPAELGKLLQLVLGCAISCEKKQDHIQRIMTLEESVQHVVMEAIQELMTKDTPDSLSPETYGNFDSQSRRYYFLSEEAEEGDELQQRCLDLERQLMLLSEEKQSLAQENAGLRERMGRPEGEGTPGLTAKKLLLLQSQLEQLQEENFRLESGREDERLRCAELEREVAELQHRNQALTSLAQEAQALKDEMDELRQSSERAGQLEATLTSCRRRLGELRELRRQVRQLEERNAGHAERTRQLEDELRRAGSLRAQLEAQRRQVQELQGQRQEEAMKAEKWLFECRNLEEKYESVTKEKERLLAERDSLREANEELRCAQLQPRGLTQADPSLDPTSTPVDNLAAEILPAELRETLLRLQLENKRLCRQEAADRERQEELQRHLEDANRARHGLETQHRLNQQQLSELRAQVEDLQKALQEQGGKTEDAISILLKRKLEEHLQKLHEADLELQRKREYIEELEPPTDSSTARRIEELQHNLQKKDADLRAMEERYRRYVDKARMVMQTMEPKQRPAAGAPPELHSLRTQLRERDVRIRHLEMDFEKSRSQREQEEKLLISAWYNMGMALQQRAGEERAPAHAQSFLAQQRLATNSRRGPLGRLASLNLRPTDKH
B2: the binding entry in test [1] and in test [2] was “binds” each time.

B3: GOSR2, endogenous in 293T cells (protein, UniProt O14653 1-212)
chain: MDPLFQQTHKQVHEIQSCMGRLETADKQSVHIVENEIQASIDQIFSRLERLEILSSKEPPNKRQNARLRVDQLKYDVQHLQTALRNFQHRRHAREQQERQREELLSRTFTTNDSDTTIPMDESLQFNSSLQKVHNGMDDLILDGHNILDGLRTQRLTLKGTQKKILDIANMLGLSNTVMRLIEKRAFQDKYFMIGGMLLTCVVMFLVVQYLT
Consider B3, for which, in test [1], the binding result is given as “binds”.

B4: BET1, endogenous in 293T cells (protein, UniProt O15155 1-118)
chain: MRRAGLGEGVPPGNYGNYGYANSGYSACEEENERLTESLRSKVTAIKSLSIEIGHEVKTQNKLLAEMDSQFDSTTGFLGKTMGKLKILSRGSQTKLLCYMMLFSLFVFFIIYWIIKLR
Take B4: the binding entry in test [1] was “binds”.

B5: WDR11, endogenous in 293T cells (protein, UniProt Q9BZH6 1-1224)
chain: MLPYTVNFKVSARTLTGALNAHNKAAVDWGWQGLIAYGCHSLVVVIDSITAQTLQVLEKHKADVVKVKWARENYHHNIGSPYCLRLASADVNGKIIVWDVAAGVAQCEIQEHAKPIQDVQWLWNQDASRDLLLAIHPPNYIVLWNADTGTKLWKKSYADNILSFSFDPFDPSHLTLLTSEGIVFISDFSPSKPPSGPGKKVYISSPHSSPAHNKLATATGAKKALNKVKILITQEKPSAEFITLNDCLQLAYLPSKRNHMLLLYPREILILDLEVNQTVGVIAIERTGVPFLQVIPCFQRDGLFCLHENGCITLRVRRSYNNIFTTSNEEPDPDPVQELTYDLRSQCDAIRVTKTVRPFSMVCCPVNENAAALVVSDGRVMIWELKSAVCNRNSRNSSSGVSPLYSPVSFCGIPVGVLQNKLPDLSLDNMIGQSAIAGEEHPRGSILREVHLKFLLTGLLSGLPAPQFAIRMCPPLTTKNIKMYQPLLAVGTSNGSVLVYHLTSGLLHKELSIHSCEVKGIEWTSLTSFLSFATSTPNNMGLVRNELQLVDLPTGRSIAFRGERGNDESAIEMIKVSHLKQYLAVVFRDKPLELWDVRTCTLLREMSKNFPTITALEWSPSHNLKSLRKKQLATREAMARQTVVSDTELSIVESSVISLLQEAESKSELSQNISAREHFVFTDIDGQVYHLTVEGNSVKDSARIPPDGSMGSITCIAWKGDTLVLGDMDGNLNFWDLKGRVSRGIPTHRSWVRKIRFAPGKGNQKLIAMYNDGAEVWDTKEVQMVSSLRSGRNVTFRILDVDWCTSDKVILASDDGCIRVLEMSMKSACFRMDEQELTEPVWCPYLLVPRASLALKAFLLHQPWNGQYSLDISHVDYPENEEIKNLLQEQLNSLSNDIKKLLLDPEFTLLQRCLLVSRLYGDESELHFWTVAAHYLHSLSQEKSASTTAPKEAAPRDKLSNPLDICYDVLCENAYFQKFQLERVNLQEVKRSTYDHTRKCTDQLLLLGQTDRAVQLLLETSADNQHYYCDSLKACLVTTVTSSGPSQSTIKLVATNMIANGKLAEGVQLLCLIDKAADACRYLQTYGEWNRAAWLAKVRLNPEECADVLRRWVDHLCSPQVNQKSKALLVLLSLGCFFSVAETLHSMRYFDRAALFVEACLKYGAFEVTEDTEKLITAIYADYARSLKNLGFKQGAVLFASKAGAAGKDLLNELESPKEEPIEE
For B5, the binding result in test [1] was “binds”.

B6: BET1L, endogenous in 293T cells (protein, UniProt Q9NYM9 1-111)
chain: MADWARAQSPGAVEEILDRENKRMADSLASKVTRLKSLALDIDRDAEDQNRYLDGMDSDFTSMTSLLTGSVKRFSTMARSGQDNRKLLCGMAVGLIVAFFILSYFLSRART
B6: the binding entry in test [1] was “binds”.

B7: GOSR1, endogenous in 293T cells (protein, UniProt O95249 1-250)
chain: MAAGTSSYWEDLRKQARQLENELDLKLVSFSKLCTSYSHSSTRDGRRDRYSSDTTPLLNGSSQDRMFETMAIEIEQLLARLTGVNDKMAEYTNSAGVPSLNAALMHTLQRHRDILQDYTHEFHKTKANFMAIRERENLMGSVRKDIESYKSGSGVNNRRTELFLKEHDHLRNSDRLIEETISIAMATKENMTSQRGMLKSIHSKMNTLANRFPAVNSLIQRINLRKRRDSLILGGVIGICTILLLLYAFH
Consider B7, for which the binding entry in test [1] is given as “binds”.

B8: STX5, endogenous in 293T cells (protein, UniProt Q13190 1-355)
chain: MIPRKRYGSKNTDQGVYLGLSKTQVLSPATAGSSSSDIAPLPPPVTLVPPPPDTMSCRDRTQEFLSACKSLQTRQNGIQTNKPALRAVRQRSEFTLMAKRIGKDLSNTFAKLEKLTILAKRKSLFDDKAVEIEELTYIIKQDINSLNKQIAQLQDFVRAKGSQSGRHLQTHSNTIVVSLQSKLASMSNDFKSVLEVRTENLKQQRSRREQFSRAPVSALPLAPNHLGGGAVVLGAESHASKDVAIDMMDSRTSQQLQLIDEQDSYIQSRADTMQNIESTIVELGSIFQQLAHMVKEQEETIQRIDENVLGAQLDVEAAHSEILKYFQSVTSNRWLMVKIFLILIVFFIIFVVFLA
As for B8, the binding entry in test [1] was “binds”.

B9: GOLGA5, endogenous in 293T cells (protein, UniProt Q8TBA6 1-731)
chain: MSWFVDLAGKAEDLLNRVDQGAATALSRKDNASNIYSKNTDYTELHQQNTDLIYQTGPKSTYISSAADNIRNQKATILAGTANVKVGSRTPVEASHPVENASVPRPSSHFVRRKKSEPDDELLFDFLNSSQKEPTGRVEIRKEKGKTPVFQSSQTSSVSSVNPSVTTIKTIEENSFGSQTHEAASNSDSSHEGQEESSKENVSSNAACPDHTPTPNDDGKSHELSNLRLENQLLRNEVQSLNQEMASLLQRSKETQEELNKARARVEKWNADHSKSDRMTRGLRAQVDDLTEAVAAKDSQLAVLKVRLQEADQLLSTRTEALEALQSEKSRIMQDQSEGNSLQNQALQTFQERLHEADATLKREQESYKQMQSEFAARLNKVEMERQNLAEAITLAERKYSDEKKRVDELQQQVKLYKLNLESSKQELIDYKQKATRILQSKEKLINSLKEGSGFEGLDSSTASSMELEELRHEKEMQREEIQKLMGQIHQLRSELQDMEAQQVNEAESAREQLQDLHDQIAGQKASKQELETELERLKQEFHYIEEDLYRTKNTLQSRIKDRDEEIQKLRNQLTNKTLSNSSQSELENRLHQLTETLIQKQTMLESLSTEKNSLVFQLERLEQQMNSASGSSSNGSSINMSGIDNGEGTRLRNVPVLFNDTETNLAGMYGKVRKAASSIDQFSIRLGIFLRRYPIARVFVIIYMALLHLWVMIVLLTYTPEMHHDQPYGK
Take B9: the binding result in test [1] and in test [2] was “binds” each time.

The values above are taken from paper PMC8730729.
